doi:10.1101/2024.02.17.580811

Protein sequences, listed by entry. Tags and fused reporters are not part of them.
UniProt P24782: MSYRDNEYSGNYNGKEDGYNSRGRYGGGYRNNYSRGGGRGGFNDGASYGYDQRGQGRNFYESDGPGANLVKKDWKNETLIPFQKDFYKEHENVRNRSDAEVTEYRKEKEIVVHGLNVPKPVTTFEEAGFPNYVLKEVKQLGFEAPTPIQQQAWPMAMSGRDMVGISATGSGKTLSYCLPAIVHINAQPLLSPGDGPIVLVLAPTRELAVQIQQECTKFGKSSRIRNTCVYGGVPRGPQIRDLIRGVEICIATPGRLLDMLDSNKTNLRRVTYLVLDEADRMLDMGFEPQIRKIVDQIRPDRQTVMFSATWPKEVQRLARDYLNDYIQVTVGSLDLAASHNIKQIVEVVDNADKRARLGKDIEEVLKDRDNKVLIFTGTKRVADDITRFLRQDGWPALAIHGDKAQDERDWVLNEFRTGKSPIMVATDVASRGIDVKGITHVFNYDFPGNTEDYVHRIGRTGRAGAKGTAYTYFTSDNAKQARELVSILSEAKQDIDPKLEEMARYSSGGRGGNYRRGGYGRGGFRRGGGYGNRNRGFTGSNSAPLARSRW

T1: Srp2-HTP (S. pombe) (UniProt P78814)
T1 sequence: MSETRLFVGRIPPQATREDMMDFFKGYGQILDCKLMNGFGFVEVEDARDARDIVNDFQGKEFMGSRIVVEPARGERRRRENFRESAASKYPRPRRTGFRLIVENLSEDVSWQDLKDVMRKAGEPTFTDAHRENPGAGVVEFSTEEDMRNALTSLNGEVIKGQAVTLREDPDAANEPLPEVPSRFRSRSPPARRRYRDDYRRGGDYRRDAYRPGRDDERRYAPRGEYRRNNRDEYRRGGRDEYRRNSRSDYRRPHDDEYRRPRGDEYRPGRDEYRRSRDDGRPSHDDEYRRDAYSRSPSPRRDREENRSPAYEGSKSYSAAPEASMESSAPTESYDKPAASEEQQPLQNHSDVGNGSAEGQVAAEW

B1: Top1 (enzyme, UniProt P07799 1-814)
chain: MSSSDSDSVSLSIRRRQRRGSSKRISMKESDEESDSSENHPLSESLNKKSKSESDEDDIPIRKRRASSKKNMSNSSSKKRAKVMGNGGLKNGKKTAVVKEEEDFNEIAKPSPKHKRVSKANGSKNGAKSAVKKEESDTDDSVPLRAVSTVSLTPYKSELPSGASTTQNRSPNDEEDEDEDYKWWTSENIDDTQKWTTLEHNGVIFAPPYEPLPKNVKLIYDGNPVNLPPEAEEVAGFYAAMLETDHAKNPVFQDNFFRDFLKVCDECNFNHNIKEFSKCDFTQMFHHFEQKREEKKSMPKEQKKAIKQKKDEEEEKYKWCILDGRKEKVGNFRIEPPGLFRGRGSHPKTGSLKRRVYPEQITINIGEGVPVPEPLPGHQWAEVKHDNTVTWLATWHENINNNVKYVFLAAGSSLKGQSDLKKYEKSRKLKDYIDDIRKGYRKDLKSELTVERQRGTAMYLIDVFALRAGNEKGEDEADTVGCCSLRYEHVTLKPPRTVVFDFLGKDSIRYYNEVEVDPQVFKNLKIFKRPPKKEGDLIFDRLSTNSLNKYLTSLMDGLSAKVFRTYNASYTMAEELKKMPKNLTLADKILFYNRANRTVAILCNHQRSVTKNHDVQMERFAERIKALQYQRMRLRKMMLNLEPKLAKSKPELLAKEEGITDSWIVKHHETLYELEKEKIKKKFDRENEKLAAEDPKSVLPESELEVRLKAADELKKALDAELKSKKVDPGRSSMEQLEKRLNKLNERINVMRTQMIDKDENKTTALGTSKINYIDPRLTYSFSKREDVPIEKLFSKTIRDKFNWAADTPPDWKW
B2: Top3 (enzyme, UniProt O60126 1-622)
chain: MRVLCVAEKNSIAKSVASILGGGHVRRRDTRSKYVKNYDFSFNFGGNVGSSDVTMTSVSGHLTEASFPSEYSSWSSVPQDVLFDAQIITSVSKNAEVLADNIKKEARNAQYLYIWTDCDREGEHIGVEISNVARASNPSIQVIRADFNNLERSHIISAAKRPRDVSKNAADAVDARIELDFRLGAIFTRLQTIQLQKSFDILQNKIISYGPCQFPTLGFVVDRWQRVEDFVPETYWHLRFVDKRQGKTIQFNWERAKVFDRLTTMIILENCLECKTAKVVNITQKPKTKYKPLPLSTVELTKLGPKHLRISAKKTLELAENLYTNGFVSYPRTETDQFDSSMNLHAIIQKLTGAQEWDSYAEGLLAGDYRPPRKGKHNDRAHPPIHPVQMVHRSALPSQDHWKVYELITRRFLACCSDNAKGAETLVQVKMEEELFSKKGLLVTEKNYLEVYPYEKWESSDQLPEYRLHEEFQPHILDMMDSSTSSPSYITEPELIALMDANGIGTDATMAEHIEKVQEREYVIKRKKRGQGVTEFVPSSLGVALAKGYDEIGLEWSLTKPFLRKEMEVQLKNIENGQLNRNVLVHMILTQFRDVFHLTKQRFDCLKNSCRVYLMSHNEPQT
B3: histone lysine acetyltransferase Rtt109 (enzyme, UniProt Q9Y7Y5 1-369)
chain: MPDLWSESILEGRKLSIYHLKSTLEKCPFLFGQSKKSKDFQFGSHLFLVEEQNVFIFGMECIVYEKNKEFIVFVSKADSTGFGSKGVSCNSLAFCCLVTLIDGLRKQGAENVTLTLFAIAQGQYLFPESVDNGQKHVLNDSGLLRWWVNCLEKLRKYYTDSEAPNDSEKQKNSTLLPKAYLFVPGLENIRSYLPNRHWIESNAITTGKAVEELPRFPDDPKCRYLCELQDEKSDMSVEEFWDTLTYRQECSSGKLVGFFTLQLQFYQTREFIAKDNFGDSGVMIPAKLYRVTYDTLLKHPFGSLSDAQSSTEKFLSNTLSAVQNLKDFHYKRYKLDICGLAKRDDRKNHNHSKPATQANILQPRKKVKK
B4: Rnh1 (enzyme, UniProt Q9UST8 1-264)
chain: MGGNKRAYYAVARGRNTGIYSTWDEASDQVKGYGGNRYKKFDSYEAAQEFCRTEGSRYSSSSGPYRRSTTSYGYSPYSSSSSNYSARHSDKYRKKISRSYSTEKDIEIFSNDTHEKSIACSDRQVVYADGSSLRNGKKGAVAGCGVFFGNDDPRNISVPLAGEEQTNNRAELQAIILALENTSGDLTIRSDSNYSIKSLTTWLPKWKKNDFKTSNSQPVKNLDLINRASDLMSDRNVSLEYVKGHSTDYGNQQADMLARRGASE
B5: Rec12 (enzyme, UniProt P40384 1-345)
chain: MNSNDKKKVVRSWIEQFVHDFVEQLSKPTKDSVNVALKRRKHNSWNGSLDSKANERQKVKVFSFPRNETTIAQLFRVLDCVHEAVISDTVITKRDIYYRDVDLFKRQTVVDELLGDISNTIGCSRSDLNVEASAKGLVFGSIHIALENGTVITATKPLLISHHRISSITSTAKWVLVIEKEAVFQTLTEEALADTIIVTAKGFPDLMTRKFLVKLAKALPDAKFFGIFDWDPHGLCIYSCFKYGSNAYSHEPHSQLRNLQLLGPLYEDIFNKNQEFSLKLNKRDIKMITTLLQFEGFQKEPVVREQLQRMLFIQKKAEIQAILEFPSWIKGKLADADKSGKHSVR

Each binder was assayed against Dbp2-HTP (S. pombe) (UniProt P24782) (assay: affinity purification with mass spectrometry).

binding, no binding:
B1
B2
B3
B4
B5

These binders were tested against T1, Srp2-HTP (S. pombe) (assay: affinity purification with mass spectrometry).

binding, no binding:
B1
B2
B3
B4
B5

Results are given in words; binding and its absence hold for the method and conditions named. In cells and extracts the contact can be indirect. A yes stands for co-enrichment or nearness to the bait. Other partners may have been found. No binding means not detected with the bait. Where a sequence is shown, tags or fusion partners need not be part of it.
